# System: high phosphate-induced kidney damage
# Experiment: mouse model of high phosphate-induced kidney damage
# Format: in vivo, C57BL/6 male mice
# Details: 100 mg/kg 3 times/week subcutaneously
# Method: C57BL/6 male were placed on either regular diet containing 0.35% inorganic phosphate (NP) or high phosphate diet containing 2.0% inorganic phosphate (HP). These mice were subcutaneously injected with either (OEG2)2-IP4 (100 mg/kg) or vehicle (distilled water) three times a week and then sacrificed at 20 weeks of age to harvest their blood and kidneys. Relative mRNA levels of (A) Spp1, (B) IL36a, (C) Ngal, (D) MMP3 and (E) Col1a1 in kidney tissue homogenate are shown (mean±SD, N=7, except HP vehicle group N=6, two-way ANOVA with Sidak's multiple comparison between (OEG2)2-IP4 vs. vehicle control within the respective diet group, ns—not significant, * p<0.05). […]
# C57BL/6 male mice (12 weeks of age) were placed on either regular diet containing 0.35% inorganic phosphate or high phosphate diet containing 2.0% inorganic phosphate. […] Serum FGF23 levels were measured using intact FGF23 ELISA (Kinos) according to the manufacturers' protocols. Serum and urine levels of phosphate were measured using Fuji Dri-Chem slides and the analyzer (Dri-Chem NX500V, Fuji, Tokyo, Japan). […] Quantitative RT-PCR reactions were performed using 20 ng of cDNA incubated with 410 nM of each primer and 6 μL of SYBR Green PCR Master mix (Toyoba, Osaka, Japan THUNDERBIRD SYBR qPCR Mix QPS-201) in a total volume of 12 μl. […] The cortex and the cortico-medullary junction were evaluated separately. […]
structure (smiles),measurement,setting,value
COCCOCCO[C@@H]1C(OP(=O)(O)O)[C@H](OCCOCCOC)[C@@H](OP(=O)(O)O)C(OP(=O)(O)O)[C@H]1OP(=O)(O)O (some centres unmarked) [(OEG2)2-IP4],"urinary phosphate excretion, treatment vs vehicle group",,no significant difference
same,"serum phosphate, CaP or urine calcium, treatment vs vehicle group",end of the treatment period,no significant differences
